Results deposited as PubChem BioAssay AID504793 (Drosophila RNAi Screening Center, 2011)
Test: 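Whole-genome screen for parts of the DNA damage checkpoint at G2/M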 (primary screen). System: Drosophila S2R+ cells. Reagents: long dsRNA against Drosophila genes, about 0.25 µg dsRNA per well. Timing: 4 days of dsRNA, then 4 hours of drug before read-out. Challenge: doxorubicin 0.5 µM for 4 hours to cause double-strand breaks, in cells also given a low, harmless dose of dsRNA against nbs to sensitise the assay. Read-out: 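Mitotic index as the number of phospho-histone H3-positive cells in each well following doxorubicin, given as raw counts without normalisation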. Direction: mitotic cells: higher = more cells in mitosis, weaker G2 arrest. Hit rule: 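Genes are called active only when high mitotic counts were reproduced with independent dsRNAs and mitosis was checked for delay without damage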. Meaning of the calls: active = confirmed in follow-up tests; inactive = not confirmed.
The deposit covers about 23,000 reagents; this is a random part of those that have a named target and a result. Of all reagents, 62 (0.27%) were called active. 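Calls come from follow-up tests whose scores are not deposited, so confirmed genes may have low counts here; counts are not normalised per plate.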 Raw values vary from plate to plate and are shown uncorrected.

| gene | amplicon | mitotic cells, replicate 1 | Outcome |
| --- | --- | --- | --- |
| EndoA | DRSC14775 | 10 | inactive |
| EndoA | DRSC29646 | 5 | inactive |
| wac | DRSC08349 | 93 | inactive |
| wac | DRSC28973 | 29 | inactive |
| Kr | DRSC04622 | 7 | inactive |
| Adk1 | DRSC15514 | 6 | inactive |
| CG10910 | DRSC06007 | 10 | inactive |
| CG10910 | DRSC29305 | 3 | inactive |
| SmF | DRSC07397 | 4 | inactive |
| SmF | DRSC25054 | – | inactive |
| CG12229 | DRSC09868 | 7 | inactive |
| CG17633 | DRSC02631 | 7 | inactive |
| CG17633 | DRSC29709 | 7 | inactive |
| tral | DRSC09779 | 8 | inactive |
| tral | DRSC25049 | 6 | inactive |
| CG8435 | DRSC07179 | 2 | inactive |
| CG8435 | DRSC29713 | 6 | inactive |
| Pp2B-14D | DRSC20270 | 7 | inactive |
| Pp2B-14D | DRSC23315 | 11 | inactive |
| CG7789 | DRSC16312 | 14 | inactive |
| CG13465 | DRSC10011 | 7 | inactive |
| CG17219 | DRSC00486 | 5 | inactive |
| drpr | DRSC08143 | 7 | inactive |
| drpr | DRSC08525 | 6 | inactive |
| CG42747 | DRSC10209 | 9 | inactive |
| CG42747 | DRSC10210 | 8 | inactive |
| CG42747 | DRSC26113 | 1 | inactive |

Continued, starting with the last 4 of the part before.
| gene | amplicon | mitotic cells, replicate 1 | Outcome |
| --- | --- | --- | --- |
| drpr | DRSC08525 | 6 | inactive |
| CG42747 | DRSC10209 | 9 | inactive |
| CG42747 | DRSC10210 | 8 | inactive |
| CG42747 | DRSC26113 | 1 | inactive |
| Spn | DRSC07986 | 11 | inactive |
| Spn | DRSC08490 | 5 | inactive |
| Spn | DRSC08491 | 9 | inactive |
| RasGAP1 | DRSC11172 | 6 | inactive |
| Mnat9 | DRSC14325 | 10 | inactive |
| nAChRalpha4 | DRSC11925 | 10 | inactive |
| nAChRalpha4 | DRSC26817 | 5 | inactive |
| Opa1 | DRSC07191 | 6 | inactive |
| Opa1 | DRSC28908 | 6 | inactive |
| CG6974 | DRSC16160 | 6 | inactive |
| step | DRSC03694 | 4 | inactive |
| step | DRSC03699 | 4 | inactive |
| Sol1 | DRSC15263 | 6 | inactive |
| Sol1 | DRSC15271 | 5 | inactive |
| Sol1 | DRSC15681 | 14 | inactive |
| Rpn1 | DRSC11274 | 58 | inactive |
| Pkcdelta | DRSC19356 | 17 | inactive |
| Pkcdelta | DRSC19399 | 12 | inactive |
| Pkcdelta | DRSC27039 | 6 | inactive |
